No constants are given. Whether binding was seen depends on the method and setting. In cells and extracts the contact can be indirect. Some results given as binding are weak or reduced against the parent protein; the word gives no strength.
Target: T1, Disabled 2 (Dab2) (mouse (endogenous in primary keratinocytes)) (UniProt P98078)
T1 sequence: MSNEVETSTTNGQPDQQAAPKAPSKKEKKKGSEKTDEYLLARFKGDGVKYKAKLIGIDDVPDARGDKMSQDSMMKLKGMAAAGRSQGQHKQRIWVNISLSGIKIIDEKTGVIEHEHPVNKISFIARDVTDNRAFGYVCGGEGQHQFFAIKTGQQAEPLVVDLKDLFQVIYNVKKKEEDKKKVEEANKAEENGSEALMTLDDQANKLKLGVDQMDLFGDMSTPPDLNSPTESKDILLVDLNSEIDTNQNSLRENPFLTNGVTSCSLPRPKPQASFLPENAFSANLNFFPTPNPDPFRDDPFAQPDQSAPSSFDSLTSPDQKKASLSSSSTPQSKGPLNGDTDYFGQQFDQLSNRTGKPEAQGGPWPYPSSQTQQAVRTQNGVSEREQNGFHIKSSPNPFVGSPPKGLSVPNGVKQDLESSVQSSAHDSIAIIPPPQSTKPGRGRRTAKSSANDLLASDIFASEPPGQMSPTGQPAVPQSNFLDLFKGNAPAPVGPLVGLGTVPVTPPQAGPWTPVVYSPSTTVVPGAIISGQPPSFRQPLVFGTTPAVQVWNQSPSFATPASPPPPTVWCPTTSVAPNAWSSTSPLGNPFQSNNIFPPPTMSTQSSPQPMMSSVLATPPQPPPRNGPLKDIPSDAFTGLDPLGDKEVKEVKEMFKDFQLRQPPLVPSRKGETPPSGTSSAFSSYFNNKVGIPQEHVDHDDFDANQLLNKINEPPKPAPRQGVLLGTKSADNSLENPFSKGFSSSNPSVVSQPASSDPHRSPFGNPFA
Assay: co-IP; WT mouse primary keratinocyte lysate in IP lysis buffer (150 mM NaCl, 25 mM Tris-HCl pH 7.9, 5 mM MgCl2, 10% glycerol, 0.2 mM EDTA, 0.1% NP-40); anti-Dab2 antibody or control IgG overnight, Protein A/G agarose beads 4 h at 4 °C; immunoblotting

binding: binds
B1: Dvl2 (protein, UniProt Q60838 1-736)
chain: MAGSSAGGGGVGETKVIYHLDEEETPYLVKIPVPAERITLGDFKSVLQRPAGAKYFFKSMDQDFGVVKEEISDDNARLPCFNGRVVSWLVSSDTPQPEVAPPAHESRTELVPPPPPLPPLPPERTSGIGDSRPPSFHPNVSSSHENLEPETETESVVSLRRDRPRRRDSSEHGAGGHRPGGPSRLERHLAGYESSSTLMTSELESTSLGDSDEDDTMSRFSSSTEQSSASRLLKRHRRRRKQRPPRMERTSSFSSVTDSTMSLNIITVTLNMEKYNFLGISIVGQSNERGDGGIYIGSIMKGGAVAADGRIEPGDMLLQVNDMNFENMSNDDAVRVLRDIVHKPGPIVLTVAKCWDPSPQAYFTLPRNEPIQPIDPAAWVSHSAALTGAFPAYPGSSSMSTITSGSSLPDGCEGRGLSVHMDMASVTKAMAAPESGLEVRDRMWLKITIPNAFLGSDVVDWLYHHVEGFPERREARKYASGLLKAGLIRHTVNKITFSEQCYYVFGDLSGGCESYLVNLSLNDNDGSSGASDQDTLAPLPGATPWPLLPTFSYQYPAPHPYSPQPPPYHELSSYTYGGGSASSQHSEGSRSSGSTRSDGGAGRTGRPEERAPESKSGSGSESELSSRGGSLRRGGEPGGTGDGGPPPSRGSTGAPPNLRALPGLHPYGAPSGMALPYNPMMVVMMPPPPPPVSTAVQPPGAPPVRDLGSVPPELTASRQSFHMAMGNPSEFFVDVM
